Measured values from PubChem BioAssay AID330 (DTP/NCI, 2004).
The list does not hold the whole screen: it gathers tests that were run many times, whatever their T/C, doses with no T/C, and many T/C values between a quarter and a half above the control. Further doses and runs are listed elsewhere. T/C is the treated group as % of the vehicle group. Some entries give survivors of the animals treated and no T/C: the source holds a T/C of zero for them, seemingly a mark for toxic or unscored doses. Some survivor counts are full or nearly so, which does not show that the dose was tolerated: the source hardly ever lists a survival T/C far under the control, and the zero likely stands for such cases as well. Survivors were counted at the toxicity check, usually on the fifth day, unless a day is given; later deaths do not show. Schedule codes are those of the source, read here as Q, the interval in days (D) or hours (H), X, the number of doses. Some structures stand for samples that the source files as different forms (salt, stereo form or complex); doses refer to the form tested. Counts like (3×) give the number of equal values in this list. Some doses were run more than once; the values are given in rising order. For survival time, this PubChem deposit counts one and a half times the control or more as active, and values a quarter to a half above the control carry no call in these data; other NCI protocols may use other cut-offs. Some T/C values are followed by the survivors on the day toxicity was checked, most often the fifth; without a count, all were alive then.

System: P388 leukemia ip, CD2F1 mice, survival T/C
Assay: NCI In Vivo Anticancer Drug Screen. Data for tumor model P388 Leukemia (intraperitoneal) in CD2F1 (CDF1) mice
Settings: T/C endpoint: median survival time, higher T/C = longer survival
[1] = dose: 40.0 mg/kg/injection, schedule: Q01DX009 (ip), vehicle: water
[2] = dose: 60.0 mg/kg/injection, schedule: Q01DX001 (iv), vehicle: saline
[3] = dose: 100.0 mg/kg/injection, schedule: Q04DX003 (ip), vehicle: saline

O=C1c2ccccc2C(=O)c2c(NCCNCCO)ccc(NCCNCCO)c21
survivor count (dose: 32.0 mg/kg/injection, schedule: Q01DX009 (ip), vehicle: acid diluted with saline): 10 of 10 and 8 of 8 | survivor count (dose: 32.0 mg/kg/injection, schedule: Q01DX009 (ip), vehicle: other): 6 of 6 | survivor count (dose: 32.0 mg/kg/injection, schedule: Q01DX009 (ip), vehicle: saline with Tween-80): 5 of 6 and 6 of 6 (2×) | T/C (dose: 32.0 mg/kg/injection, schedule: Q01DX009 (ip), vehicle: water, evaluated on day 30): 89, 107, 108, 155, 198, 211 % of control | T/C (dose: 32.0 mg/kg/injection, schedule: Q01DX009 (ip), vehicle: water, evaluated on day 60): 86 % of control | survivor count (dose: 32.0 mg/kg/injection, schedule: Q01DX009 (ip), vehicle: water): 10 of 10 and 6 of 6 | T/C (dose: 32.0 mg/kg/injection, schedule: Q04DX003 (ip), vehicle: saline): 130 % of control | T/C (dose: 36.0 mg/kg/injection, schedule: Q01DX001 (iv), vehicle: saline, evaluated on day 45): 127 % of control | T/C (dose: 36.0 mg/kg/injection, schedule: Q01DX001 (iv), vehicle: saline, evaluated on day 60): 140 % of control [7 of 8 alive] | survivor count (dose: 36.0 mg/kg/injection, schedule: Q01DX005 (iv), vehicle: saline): 3 of 8 | T/C (dose: 36.0 mg/kg/injection, schedule: Q04DX003 (ip), vehicle: saline): 162, 181, 268, 289 % of control | T/C (dose: 40.0 mg/kg/injection, schedule: Q01DX001 (iv), vehicle: saline): 131 % of control | survivor count (dose: 40.0 mg/kg/injection, schedule: Q01DX005 (ip), vehicle: other): 6 of 6 | survivor count (dose: 40.0 mg/kg/injection, schedule: Q01DX005 (iv), vehicle: saline): 5 of 8 | survivor count (dose: 40.0 mg/kg/injection, schedule: Q01DX009 (ip), vehicle: distilled water + Tween-80): 4 of 6 | T/C (dose: 40.0 mg/kg/injection, schedule: Q01DX009 (ip), vehicle: saline, evaluated on day 35): 91 % of control | T/C (dose: 40.0 mg/kg/injection, schedule: Q01DX009 (ip), vehicle: saline, evaluated on day 45): 90 % of control | T/C (dose: 40.0 mg/kg/injection, schedule: Q01DX009 (ip), vehicle: saline, evaluated on day 50): 106 % of control | survivor count (dose: 40.0 mg/kg/injection, schedule: Q01DX009 (ip), vehicle: saline): 6 of 6 (2×) | T/C [1]: 131 and 221 % of control | survivor count [1]: 5 of 6 (2×), 5 of 5, 6 of 6 (2×) | T/C (dose: 40.0 mg/kg/injection, schedule: Q04DX003 (iv), vehicle: saline): 142 % of control [7 of 8 alive] | T/C (dose: 48.0 mg/kg/injection, schedule: Q04DX003 (ip), vehicle: saline, evaluated on day 30): 138 % of control (2×) | T/C (dose: 48.0 mg/kg/injection, schedule: Q04DX003 (ip), vehicle: saline, evaluated on day 45): 396 % of control | T/C (dose: 48.0 mg/kg/injection, schedule: Q04DX003 (ip), vehicle: saline, evaluated on day 60): 560 % of control | survivor count (dose: 48.0 mg/kg/injection, schedule: Q04DX003 (iv), vehicle: saline): 4 of 8 and 5 of 5 | survivor count (dose: 50.0 mg/kg/injection, schedule: Q01DX005 (ip), vehicle: saline): 6 of 6 | survivor count (dose: 50.0 mg/kg/injection, schedule: Q01DX005 (iv), vehicle: saline): 2 of 6 | survivor count (dose: 50.0 mg/kg/injection, schedule: Q01DX009 (ip), vehicle: Klucel (hydroxypropylcellulose) (HPC)): 6 of 6 | survivor count (dose: 50.0 mg/kg/injection, schedule: Q01DX009 (ip), vehicle: saline): 5 of 6 and 6 of 6 | survivor count (dose: 50.0 mg/kg/injection, schedule: Q01DX009 (ip), vehicle: water): 4 of 6 | T/C [2]: 144 % of control [2 of 2 alive] | survivor count [2]: 0 of 8 | survivor count (dose: 60.0 mg/kg/injection, schedule: Q01DX005 (ip), vehicle: saline): 8 of 8 | survivor count (dose: 60.0 mg/kg/injection, schedule: Q01DX005 (iv), vehicle: saline): 0 of 8 | T/C (dose: 60.0 mg/kg/injection, schedule: Q04DX003 (ip), vehicle: saline): 89, 154, 291, 372 % of control | survivor count (dose: 64.0 mg/kg/injection, schedule: Q01DX009 (ip), vehicle: Klucel (hydroxypropylcellulose) (HPC)): 8 of 10 and 9 of 10 | survivor count (dose: 64.0 mg/kg/injection, schedule: Q01DX009 (ip), vehicle: acid diluted with saline): 10 of 10 | survivor count (dose: 64.0 mg/kg/injection, schedule: Q01DX009 (ip), vehicle: saline with Tween-80): 4 of 6 (2×) and 6 of 6 | survivor count (dose: 64.0 mg/kg/injection, schedule: Q01DX009 (ip), vehicle: saline): 10 of 10 | survivor count (dose: 64.0 mg/kg/injection, schedule: Q01DX009 (ip), vehicle: water): 6 of 10, 4 of 6, 8 of 10, 5 of 6, 6 of 6 | survivor count (dose: 64.0 mg/kg/injection, schedule: Q04DX003 (ip), vehicle: saline with Tween-80): 5 of 6 | survivor count (dose: 80.0 mg/kg/injection, schedule: Q01DX001 (iv), vehicle: saline): 0 of 8 | survivor count (dose: 80.0 mg/kg/injection, schedule: Q04DX003 (ip), vehicle: saline): 7 of 8 | survivor count (dose: 80.0 mg/kg/injection, schedule: Q04DX003 (iv), vehicle: saline): 1 of 8 | survivor count (dose: 100.0 mg/kg/injection, schedule: Q01DX001 (ip), vehicle: saline): 7 of 8 | survivor count (dose: 100.0 mg/kg/injection, schedule: Q01DX009 (ip), vehicle: Klucel (hydroxypropylcellulose) (HPC)): 6 of 6 (2×) | survivor count (dose: 100.0 mg/kg/injection, schedule: Q01DX009 (ip), vehicle: saline): 2 of 6 and 4 of 6 | survivor count (dose: 100.0 mg/kg/injection, schedule: Q01DX009 (ip), vehicle: water): 3 of 6 | T/C [3]: 185 % of control | survivor count [3]: 5 of 8, 7 of 8, 8 of 8 | survivor count (dose: 128.0 mg/kg/injection, schedule: Q01DX009 (ip), vehicle: saline with Tween-80): 2 of 6, 4 of 6, 6 of 6 | survivor count (dose: 128.0 mg/kg/injection, schedule: Q04DX003 (ip), vehicle: Klucel (hydroxypropylcellulose) (HPC)): 4 of 6 and 5 of 6 | survivor count (dose: 128.0 mg/kg/injection, schedule: Q04DX003 (ip), vehicle: saline with Tween-80): 2 of 6 | survivor count (dose: 160.0 mg/kg/injection, schedule: Q01DX001 (ip), vehicle: saline): 8 of 8 | survivor count (dose: 167.0 mg/kg/injection, schedule: Q01DX001 (ip), vehicle: saline): 4 of 8 | T/C (dose: 192.0 mg/kg/injection, schedule: Q04DX003 (ip), vehicle: saline): 149 % of control | survivor count (dose: 200.0 mg/kg/injection, schedule: Q01DX009 (ip), vehicle: Klucel (hydroxypropylcellulose) (HPC)): 2 of 6 and 3 of 6 | survivor count (dose: 200.0 mg/kg/injection, schedule: Q01DX009 (ip), vehicle: saline): 0 of 6 | T/C (dose: 200.0 mg/kg/injection, schedule: Q04DX003 (ip), vehicle: Klucel (hydroxypropylcellulose) (HPC)): 127 % of control [survivors not given] | survivor count (dose: 256.0 mg/kg/injection, schedule: Q04DX003 (ip), vehicle: saline with Tween-80): 0 of 6 | survivor count (dose: 384.0 mg/kg/injection, schedule: Q04DX003 (ip), vehicle: saline): 6 of 6 | survivor count (dose: 400.0 mg/kg/injection, schedule: Q01DX009 (ip), vehicle: Klucel (hydroxypropylcellulose) (HPC)): 0 of 6 (2×) | survivor count (dose: 512.0 mg/kg/injection, schedule: Q04DX003 (ip), vehicle: saline with Tween-80): 0 of 6 | survivor count (dose: 512.0 mg/kg/injection, schedule: Q04DX003 (ip), vehicle: saline): 3 of 6 on day 9 and 6 of 6
